Residue numbers refer to the chain shown, from its start. No constants are given. Whether binding was seen depends on the method and setting. Binding seen in cells or lysates may run through a third protein. A result given as binding can be weak or reduced; the word gives no strength. Where a sequence is shown, tags or fusion partners need not be part of it.
Columns and labels:
Myc-ACBD5 S261E = biological target: T1, Myc-ACBD5 S261E (UniProt Q5T8D3); test: co-IP; Myc-ACBD5 constructs in COS-7 lysates treated with or without λPP for 1 h, then Myc-TRAP magnetic agarose beads 1 h at 4°C; endogenous VAPB by immunoblot (Fig. 1 C, methods in p-0042; Fig. 2 D and E)
T1 sequence: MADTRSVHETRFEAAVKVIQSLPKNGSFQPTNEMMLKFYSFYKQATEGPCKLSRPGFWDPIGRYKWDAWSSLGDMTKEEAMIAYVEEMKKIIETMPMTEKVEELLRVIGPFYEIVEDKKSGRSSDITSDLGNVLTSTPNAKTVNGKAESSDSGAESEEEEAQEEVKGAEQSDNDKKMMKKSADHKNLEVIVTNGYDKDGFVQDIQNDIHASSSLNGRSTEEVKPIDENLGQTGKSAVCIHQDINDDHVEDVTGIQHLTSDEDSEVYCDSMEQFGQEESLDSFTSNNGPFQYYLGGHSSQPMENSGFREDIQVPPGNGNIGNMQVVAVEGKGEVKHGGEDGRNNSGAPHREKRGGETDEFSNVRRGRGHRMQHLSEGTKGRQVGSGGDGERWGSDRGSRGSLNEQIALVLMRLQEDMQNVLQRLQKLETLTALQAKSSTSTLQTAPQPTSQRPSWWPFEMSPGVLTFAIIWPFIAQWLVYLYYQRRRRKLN

Myc-ACBD5 S263E = biological target: T2, Myc-ACBD5 S263E (UniProt Q5T8D3); test: as above
T2 sequence: T1 sequence with E261S, S263E

[1] = biological target: T3, Myc-ACBD5 S259E/S261E/S263E (UniProt Q5T8D3); test: as above
T3 sequence: T1 sequence with S259E, S263E

Myc-ACBD5 = biological target: T4, Myc-ACBD5 (UniProt Q5T8D3); test: as above
T4 sequence: T1 sequence with E261S

FLAG-ACBD4 = biological target: T5, FLAG-ACBD4 (UniProt Q8NC06); test: co-IP; as a3, but lysates treated with λPP for 1 h before the IP (Figs. 1 E and S1 A)
T5 sequence: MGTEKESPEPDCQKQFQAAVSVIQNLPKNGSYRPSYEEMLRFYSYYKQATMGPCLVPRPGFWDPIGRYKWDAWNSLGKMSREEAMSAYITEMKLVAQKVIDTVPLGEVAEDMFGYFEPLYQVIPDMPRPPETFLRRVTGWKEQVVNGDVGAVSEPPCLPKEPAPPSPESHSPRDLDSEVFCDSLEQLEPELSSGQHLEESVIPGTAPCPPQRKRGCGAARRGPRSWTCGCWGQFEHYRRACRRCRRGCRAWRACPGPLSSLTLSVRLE

Measured: binding

endogenous VAPB (COS-7 cells)
binds: all assays above
